Results on 5 molecules are retold here after publication PMC10006232.

The chains behind the UniProt entries cited, without tags or fusion partners.
UniProt Q92831: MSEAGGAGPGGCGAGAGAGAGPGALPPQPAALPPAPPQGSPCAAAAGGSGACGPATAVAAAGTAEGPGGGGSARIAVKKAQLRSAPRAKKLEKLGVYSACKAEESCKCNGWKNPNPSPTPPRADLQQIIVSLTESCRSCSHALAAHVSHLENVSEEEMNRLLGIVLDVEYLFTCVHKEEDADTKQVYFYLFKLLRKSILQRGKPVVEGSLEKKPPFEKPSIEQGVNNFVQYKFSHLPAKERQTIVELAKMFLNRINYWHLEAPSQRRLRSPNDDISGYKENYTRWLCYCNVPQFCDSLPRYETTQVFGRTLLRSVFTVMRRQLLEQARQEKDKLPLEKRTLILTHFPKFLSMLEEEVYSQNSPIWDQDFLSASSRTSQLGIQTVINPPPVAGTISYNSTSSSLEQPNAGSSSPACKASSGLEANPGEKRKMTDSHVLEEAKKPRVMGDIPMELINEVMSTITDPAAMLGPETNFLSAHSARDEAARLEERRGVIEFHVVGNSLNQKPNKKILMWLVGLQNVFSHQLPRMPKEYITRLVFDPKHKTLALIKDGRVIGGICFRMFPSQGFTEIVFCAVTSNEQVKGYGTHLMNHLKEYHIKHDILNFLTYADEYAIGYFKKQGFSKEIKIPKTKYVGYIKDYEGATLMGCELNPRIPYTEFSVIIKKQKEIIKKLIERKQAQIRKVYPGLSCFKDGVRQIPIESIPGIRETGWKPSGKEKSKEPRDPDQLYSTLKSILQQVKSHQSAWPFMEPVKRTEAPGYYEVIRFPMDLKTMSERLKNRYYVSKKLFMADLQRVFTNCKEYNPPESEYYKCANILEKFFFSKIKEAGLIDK
UniProt Q09472: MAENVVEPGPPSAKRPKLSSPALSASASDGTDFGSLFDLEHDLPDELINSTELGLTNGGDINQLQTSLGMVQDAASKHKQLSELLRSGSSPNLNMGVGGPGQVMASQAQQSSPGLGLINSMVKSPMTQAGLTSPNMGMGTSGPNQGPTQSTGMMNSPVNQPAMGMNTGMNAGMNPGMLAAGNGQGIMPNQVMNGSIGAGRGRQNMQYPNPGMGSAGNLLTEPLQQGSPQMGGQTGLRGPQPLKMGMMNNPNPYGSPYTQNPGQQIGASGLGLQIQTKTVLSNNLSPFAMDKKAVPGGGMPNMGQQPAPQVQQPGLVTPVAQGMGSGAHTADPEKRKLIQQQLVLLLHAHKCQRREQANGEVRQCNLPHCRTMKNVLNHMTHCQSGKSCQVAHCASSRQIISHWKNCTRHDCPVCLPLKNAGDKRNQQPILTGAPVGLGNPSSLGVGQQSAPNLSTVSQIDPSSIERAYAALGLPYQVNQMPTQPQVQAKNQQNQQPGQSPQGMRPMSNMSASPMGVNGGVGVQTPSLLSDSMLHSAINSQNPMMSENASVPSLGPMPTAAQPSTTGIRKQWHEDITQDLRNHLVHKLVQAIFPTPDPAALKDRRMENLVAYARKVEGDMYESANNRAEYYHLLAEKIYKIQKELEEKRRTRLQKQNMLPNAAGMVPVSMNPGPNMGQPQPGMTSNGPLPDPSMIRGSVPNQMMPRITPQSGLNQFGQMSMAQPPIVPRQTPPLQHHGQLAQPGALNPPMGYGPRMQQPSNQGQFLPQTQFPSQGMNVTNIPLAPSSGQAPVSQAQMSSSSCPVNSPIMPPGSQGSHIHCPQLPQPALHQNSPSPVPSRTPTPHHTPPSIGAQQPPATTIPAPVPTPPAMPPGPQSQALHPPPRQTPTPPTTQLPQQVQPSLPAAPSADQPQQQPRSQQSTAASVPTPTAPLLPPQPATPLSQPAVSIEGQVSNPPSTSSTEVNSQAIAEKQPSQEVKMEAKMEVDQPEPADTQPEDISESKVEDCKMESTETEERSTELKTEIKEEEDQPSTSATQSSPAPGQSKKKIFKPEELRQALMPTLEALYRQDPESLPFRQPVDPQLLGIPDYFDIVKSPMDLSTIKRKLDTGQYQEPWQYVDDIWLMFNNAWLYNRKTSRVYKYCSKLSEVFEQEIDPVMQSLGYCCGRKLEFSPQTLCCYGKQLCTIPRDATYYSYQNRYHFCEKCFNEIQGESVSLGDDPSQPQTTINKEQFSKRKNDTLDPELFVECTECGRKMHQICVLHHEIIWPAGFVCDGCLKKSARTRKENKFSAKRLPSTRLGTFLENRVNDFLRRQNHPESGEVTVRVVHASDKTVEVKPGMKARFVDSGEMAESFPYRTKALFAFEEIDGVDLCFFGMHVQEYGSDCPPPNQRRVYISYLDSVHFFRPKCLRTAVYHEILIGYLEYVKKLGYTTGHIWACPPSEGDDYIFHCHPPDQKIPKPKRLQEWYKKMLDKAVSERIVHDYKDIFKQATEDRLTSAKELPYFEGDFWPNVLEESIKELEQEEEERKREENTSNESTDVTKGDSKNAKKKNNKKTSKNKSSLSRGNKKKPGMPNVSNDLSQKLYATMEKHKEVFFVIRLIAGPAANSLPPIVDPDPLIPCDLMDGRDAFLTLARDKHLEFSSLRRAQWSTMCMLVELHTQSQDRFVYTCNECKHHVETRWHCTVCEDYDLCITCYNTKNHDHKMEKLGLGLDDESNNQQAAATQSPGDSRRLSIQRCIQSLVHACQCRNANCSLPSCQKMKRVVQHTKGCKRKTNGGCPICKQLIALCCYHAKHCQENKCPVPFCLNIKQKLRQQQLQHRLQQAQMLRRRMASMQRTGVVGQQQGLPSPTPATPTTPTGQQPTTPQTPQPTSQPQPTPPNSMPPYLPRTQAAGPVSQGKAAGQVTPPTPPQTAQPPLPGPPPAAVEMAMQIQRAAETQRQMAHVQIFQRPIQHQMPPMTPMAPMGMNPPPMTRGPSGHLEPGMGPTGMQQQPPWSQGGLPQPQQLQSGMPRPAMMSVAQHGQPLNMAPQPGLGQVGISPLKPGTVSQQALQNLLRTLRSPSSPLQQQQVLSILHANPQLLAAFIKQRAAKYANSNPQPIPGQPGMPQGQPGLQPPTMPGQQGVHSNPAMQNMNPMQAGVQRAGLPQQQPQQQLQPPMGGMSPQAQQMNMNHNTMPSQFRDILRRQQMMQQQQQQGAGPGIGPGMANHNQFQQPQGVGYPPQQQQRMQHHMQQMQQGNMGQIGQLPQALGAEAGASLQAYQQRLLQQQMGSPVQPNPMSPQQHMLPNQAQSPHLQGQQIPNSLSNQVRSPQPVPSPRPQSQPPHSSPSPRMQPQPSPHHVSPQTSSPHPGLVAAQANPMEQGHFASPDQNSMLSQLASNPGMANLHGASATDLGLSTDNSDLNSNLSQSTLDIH
UniProt P14618: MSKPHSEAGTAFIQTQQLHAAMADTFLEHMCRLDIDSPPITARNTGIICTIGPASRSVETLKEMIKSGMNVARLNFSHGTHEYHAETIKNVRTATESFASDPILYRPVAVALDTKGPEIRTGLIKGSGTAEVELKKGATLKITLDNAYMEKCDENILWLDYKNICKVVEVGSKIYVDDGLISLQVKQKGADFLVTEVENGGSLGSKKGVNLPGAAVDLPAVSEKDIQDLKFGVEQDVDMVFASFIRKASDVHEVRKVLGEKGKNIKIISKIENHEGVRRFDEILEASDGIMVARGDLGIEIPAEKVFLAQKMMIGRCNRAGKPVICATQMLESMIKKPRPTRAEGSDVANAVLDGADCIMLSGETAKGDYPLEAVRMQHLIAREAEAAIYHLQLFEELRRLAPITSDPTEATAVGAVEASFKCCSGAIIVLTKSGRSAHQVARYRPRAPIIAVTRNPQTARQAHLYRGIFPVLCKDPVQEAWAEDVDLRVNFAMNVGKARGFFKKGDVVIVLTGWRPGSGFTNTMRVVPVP

Like-named read-outs stand apart in the source and are kept apart here. Results are given in words; binding and its absence hold for the method and conditions named. For part of these data: Binding seen in cells or lysates may run through a third protein. Some entries that bind do so weakly or less than the wild type. For part of these data: Tags and fused reporters may be left off the sequences shown.

Assay [1] addresses FLAG-PCAF purified from HeLa cells (UniProt Q92831). Nature of the assay: co-IP; in vitro: FLAG-PCAF purified from HeLa cells incubated with purified recombinant His-PKM2 in the presence of increasing amount of purified recombinant PHGDH, immunoprecipitated with anti-FLAG beads; both purified.
The target of assay [2] is T1, purified recombinant GST-PHGDH (UniProt O43175).
T1 sequence: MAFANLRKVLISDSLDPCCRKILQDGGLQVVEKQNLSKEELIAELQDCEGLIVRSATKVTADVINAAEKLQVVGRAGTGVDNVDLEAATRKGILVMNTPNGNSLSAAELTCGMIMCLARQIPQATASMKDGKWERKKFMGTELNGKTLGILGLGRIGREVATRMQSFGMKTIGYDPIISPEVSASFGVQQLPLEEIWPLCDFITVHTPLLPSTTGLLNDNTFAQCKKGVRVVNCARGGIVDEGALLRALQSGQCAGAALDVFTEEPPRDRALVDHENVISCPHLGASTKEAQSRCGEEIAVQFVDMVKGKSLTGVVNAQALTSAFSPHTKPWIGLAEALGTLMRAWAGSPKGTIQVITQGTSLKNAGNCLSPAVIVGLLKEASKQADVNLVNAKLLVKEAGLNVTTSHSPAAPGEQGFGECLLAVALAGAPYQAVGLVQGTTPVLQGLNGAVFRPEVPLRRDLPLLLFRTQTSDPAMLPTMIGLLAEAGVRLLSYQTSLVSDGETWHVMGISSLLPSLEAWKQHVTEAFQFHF
Nature of the assay: pull-down; GST-PHGDH pre-bound to glutathione beads, incubated with purified His-PKM2 in buffer C (50 mM Tris pH7.4, 150 mM NaCl, 1 mM EDTA, 6 mM sodium deoxycholate, 1% NP-40), 4 °C overnight; called in vitro Co-IP in the text; both purified.

The target of assay [3] is p300 immobilized on agarose beads from HeLa cells (human (endogenous in HeLa)) (UniProt Q09472). Nature of the assay: co-IP; in vitro: p300 immobilized on agarose beads from HeLa cells with anti-p300, incubated with purified recombinant PKM2 in the presence of increasing amount of purified recombinant PHGDH; both purified.
In assay [4] the target is pyruvate kinase M2 (PKM2), endogenous in HUVECs (human (endogenous in HUVEC)) (UniProt P14618). Nature of the assay: co-IP; endogenous PKM2 or PHGDH immunoprecipitated from HUVEC lysates (anti-PKM2, anti-PHGDH) in buffer A (50 mM Tris pH7.4, 150 mM NaCl, 1 mM EDTA, 6 mM sodium deoxycholate, 1% NP-40), 4 °C overnight, immunoblots; also from cells with PHGDH overexpression, PHGDH knockdown or p300 knockdown. In general terms: Immunoblotting shows a protein as a band on a membrane.

For assay [5] the target is unchanged. The description is as above. The source holds these as a separate data set.
Assay [6] deals with T2, phosphoglycerate dehydrogenase (PHGDH), endogenous in HUVECs (human (endogenous in HUVEC)) (UniProt O43175).
T2 sequence: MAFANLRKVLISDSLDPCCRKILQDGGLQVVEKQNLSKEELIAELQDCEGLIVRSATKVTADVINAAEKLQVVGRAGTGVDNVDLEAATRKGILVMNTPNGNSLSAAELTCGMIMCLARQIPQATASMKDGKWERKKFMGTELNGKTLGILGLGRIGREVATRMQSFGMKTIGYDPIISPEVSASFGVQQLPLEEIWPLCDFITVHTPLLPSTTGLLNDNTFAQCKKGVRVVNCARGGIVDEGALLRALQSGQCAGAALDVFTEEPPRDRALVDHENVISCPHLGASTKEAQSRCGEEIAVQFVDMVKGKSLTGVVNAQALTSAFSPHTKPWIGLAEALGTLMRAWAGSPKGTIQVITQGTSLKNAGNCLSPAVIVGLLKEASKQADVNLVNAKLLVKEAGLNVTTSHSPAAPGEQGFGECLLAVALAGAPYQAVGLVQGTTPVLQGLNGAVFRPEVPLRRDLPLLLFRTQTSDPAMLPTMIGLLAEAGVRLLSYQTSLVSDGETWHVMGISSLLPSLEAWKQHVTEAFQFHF
The assay is described as above.

In the case of “purified recombinant His-PKM2 (from UniProt P14618 1-531)”, the binding entry in assay [1], in assay [2] and in assay [3] was “binds” throughout. With “acetyltransferase p300, endogenous in HUVECs (from UniProt Q09472 1-2414)”, in assay [4], the binding entry was “binds”.

Take “PCAF (p300/CBP-associated factor), endogenous (from UniProt Q92831 1-832)”: the binding entry in assay [4] was “binds”.

B1: phosphoserine aminotransferase 1 (PSAT1), endogenous in HUVECs (protein, UniProt Q9Y617 1-370)
chain: MDAPRQVVNFGPGPAKLPHSVLLEIQKELLDYKGVGISVLEMSHRSSDFAKIINNTENLVRELLAVPDNYKVIFLQGGGCGQFSAVPLNLIGLKAGRCADYVVTGAWSAKAAEEAKKFGTINIVHPKLGSYTKIPDPSTWNLNPDASYVYYCANETVHGVEFDFIPDVKGAVLVCDMSSNFLSKPVDVSKFGVIFAGAQKNVGSAGVTVVIVRDDLLGFALRECPSVLEYKVQAGNSSLYNTPPCFSIYVMGLVLEWIKNNGGAAAMEKLSSIKSQTIYEIIDNSQGFYVCPVEPQNRSKMNIPFRIGNAKGDDALEKRFLDKALELNMLSLKGHRSVGGIRASLYNAVTIEDVQKLAAFMKKFLEMHQL
Take B1: the binding result in assay [5] and in assay [6] was “binds” each time.

B2: phosphoserine phosphatase (PSPH), endogenous in HUVECs (protein, UniProt P78330 1-225)
chain: MVSHSELRKLFYSADAVCFDVDSTVIREEGIDELAKICGVEDAVSEMTRRAMGGAVPFKAALTERLALIQPSREQVQRLIAEQPPHLTPGIRELVSRLQERNVQVFLISGGFRSIVEHVASKLNIPATNVFANRLKFYFNGEYAGFDETQPTAESGGKGKVIKLLKEKFHFKKIIMIGDGATDMEACPPADAFIGFGGNVIRQQVKDNAKWYITDFVELLGELEE
Take B2: the binding result in assay [5] and in assay [6] was “binds” throughout.
